In patent US8158317B2, “Azo dye compound, coloring composition, ink sheet for thermal transfer recording, thermal transfer recording method, color toner, ink for inkjet, and color filter” (FUJIFILM Corporation, priority 2006, dated 2012) one finds Transferability data, which are given here for ten molecules.

The structures appear in SMILES notation. Some compounds share one wording; it may come from a single statement.

This series is described as follows: Transferability: status A reflection density at solid density area of thermal transfer image. The following applies: status A reflection density at solid density (100% dot density) area; thermal head 0.25 W/dot; three ranks. The procedure:
The ink sheet 1 and the image-receiving material produced in the manner as above were stuck together in such a manner that the dye-donating layer could face the image-receiving layer. This was tested for printing, using a thermal head applied to the back of the dye-donating material. The output of the thermal head was 0.25 W/dot, the pulse width thereof was from 0.15 to 15 msec, and the dot density was 6 dots/mm. Thus, a yellow dye was imagewise given to the image-receiving layer of the image-receiving material, and a sharp image was recorded thereon with no transfer unevenness. The ink sheets 2 to 8 were tested for image printing, in the same manner as that for the ink sheet 1.
The status A reflection density at the solid density (100% dot density) area of each of the thus-formed images was measured, and the samples were evaluated for the transferability in three ranks. Those having a reflection density of at least 1.8 are A (very good); those having a reflection density of from 1.6 to less than 1.8 are B (good); and those having a reflection density of from 1.0 to less than 1.6 are C (acceptable).
On to `CN(C)C(=O)n1c(/N=N/c2c(C(C)(C)C)nn(C)c2N)nc(C#N)c1C#N` [(2)], for which the Transferability result was “A (Those having a reflection density of at least 1.8 are A (very good))”.

For the molecule `CC(=O)n1c(/N=N/c2c(C(C)(C)C)nn(C)c2N)nc(C#N)c1C#N` [(3)], the Transferability entry is listed as “A (Those having a reflection density of at least 1.8 are A (very good))”.

With `Cn1nc(C(C)(C)C)c(/N=N/c2nc(C#N)c(C#N)n2C(=O)c2ccccc2)c1N` [(4)], the Transferability entry is “A (Those having a reflection density of at least 1.8 are A (very good))”.

`COC(=O)n1c(/N=N/c2c(C(C)(C)C)nn(C)c2N)nc(C#N)c1C#N` [(5)]: the Transferability result is recorded as “A (Those having a reflection density of at least 1.8 are A (very good))”.

For `CC(C)(C)c1nn(-c2ccccc2)c(N)c1/N=N/c1ccc([N+](=O)[O-])cc1` [Comparative Dye 1, reference compound], the Transferability entry was “B (those having a reflection density of from 1.6 to less than 1.8 are B (good))”.

On to `CCN(CC)C(=O)n1c(/N=N/c2ccc(N(CC)CC)cc2NC(C)=O)nc(C#N)c1C#N` [Comparative Dye 2, reference compound], for which the Transferability entry is “A (Those having a reflection density of at least 1.8 are A (very good))”.

In the case of `Cn1nc(C(C)(C)C)c(/N=N/c2nc(C#N)c(C#N)[nH]2)c1N` [Comparative Dye 3, reference compound], the Transferability entry is recorded as “C (those having a reflection density of from 1.0 to less than 1.6 are C (acceptable))”.

On to `CCN(CCOc1ccc(C2CCCCC2)cc1)c1ccc(C=C(C#N)C#N)c(C)c1` [Comparative Dye 4, reference compound], for which the Transferability result is listed as “A (Those having a reflection density of at least 1.8 are A (very good))”.

Take `CCCCN(CCCC)C(=O)c1ccc2c(c1)C(=O)C(c1nc3ccc(C(C)C)cc3cc1O)C2=O` (stereo not shown) [Comparative Dye 5, reference compound]: the Transferability entry is given as “C (those having a reflection density of from 1.0 to less than 1.6 are C (acceptable))”.

As to `CCN(CC)C(=O)n1c(/N=N/c2c(C(C)(C)C)nn(C)c2N)nc(C#N)c1C#N` [Compound (1)], the Transferability result was “A (Those having a reflection density of at least 1.8 are A (very good))”.
